# Results of single-concentration screens

The filed quantity is “Percent Effect” (%). The controls that fix the scale are not given in the record; negative values are as filed. The compounds are a random part of those screened. Two or more numbers in one place are separate tests of the same structure; such repeats can differ widely.

Mtb glucose medium: 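Whole-cell growth test on Mycobacterium tuberculosis, read after 3 days in glucose-containing 7H9 medium; the read-out is not stated. Tested at 50 µM. The record gives no direction; compounds that gave an IC50 in retests scored well above the rest, so higher reads as more growth inhibition. Of about 69,000 compounds tested this way, about 760 (1.1%) reached 50% or more in at least one test.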
Mtb cholesterol medium: 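Phenotypic screen: M. tuberculosis growth, cholesterol and DPPC medium, 4 days; the read-out is not stated. Compounds at 50 µM. Higher reads as more growth inhibition (inferred: compounds with an IC50 in retests scored well above the rest). Of about 69,000 compounds tested this way, about 370 (0.54%) reached 50% or more in at least one test.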

| structure | Mtb glucose medium | Mtb cholesterol medium |
|---|---|---|
| `Cc1nc(-c2ccccc2C)n(CC(=O)NC(C)C)n1` | -23.94% and -8.969% | -26.28% |
| `CC(C)C(C)NC(=O)Nc1ccccc1CN1CCOCC1` (centres unmarked) | 0.4436% | -10.61% |
| `OC1CCN(CCCn2ccnc2-c2c[nH]cn2)CC1` | -34.04% | -4.382% |
| `CN(C)c1cc(C(=O)NCC2(c3ccc(F)cc3)CC2)ccn1` | -2.458% and 12.7% | -13.46% |
| `CC(Cc1ccco1)NC(=O)Nc1cnn(CC(N)=O)c1` (centres unmarked) | -8.131% | -9.802% |
| `O=C1CC(c2cccs2)c2cnn(C3CCCC3)c2N1` (centres unmarked) | -4.304% | -11.33% |
| `O=C(CN1CCCC1c1nc(-c2ccccn2)no1)N1CCOCC1` (centres unmarked) | -20.39% | -14.22% and -2.274% |
| `CC(C)(C)c1nccc(N2CCN(C3CCS(=O)(=O)C3)CC2)n1` (centres unmarked) | -11.01% | -8.772% |
| `CN1C(=O)CCC12CCCN(C(=O)c1ccncc1F)C2.O=C(O)C(F)(F)F` (centres unmarked) | 23.45% | 2.237% |
| `O=C(O)C(F)(F)F.O=C(O)C(F)(F)F.O=C(O)C(F)(F)F.[H][C@@]12COC[C@]1([H])[C@H](N(C)C)CN2Cc1cnn(C)c1` | 0.4596% | 0.3147% |
| `COc1nn(C)c2c1CCCN(C(=O)c1ccc3c(c1)OCO3)C2.O=C(O)C(F)(F)F` | -5.519% | -27.71% |
| `CC(C)Nc1ccnc(-c2ccnc3c2ccn3C)n1` | 0.002121% | 5.402% |
| `CCCC(O)CN1CCC(=O)N(Cc2ccccc2)Cc2ccccc21` (centres unmarked) | 5.705% | -2.289% |
| `Cc1ccc(-c2nc(CN3CCN(CC(=O)N(C)C)CC3)cs2)o1` | 10.15% | -4.041% |
| `Cc1ncsc1C(=O)NC1CCN(Cc2cccc3c2OCCO3)CC1` | -5.487% | -15.71% |
| `COc1ccc(S(=O)(=O)C(F)(F)F)cc1NC(=O)CSCC#N` | 19.91% and 6.446% | -7.747% |
| `CC(NC(=O)C1CN(c2ncnc3c2nnn3C)C1)c1ccccc1` (centres unmarked) | -48.72% | 11.44% |
| `O=C(NCCNC(=O)c1scnc1Cl)c1ccccc1` | 16.07% | 7.438% |
| `CC(O)(CNC(=O)c1c(F)cccc1Cl)C1CC1` (centres unmarked) | 1.554% | -3.244% |
| `CCN(C)C(=O)c1ncn2c(C3CCN(S(C)(=O)=O)CC3)ccnc12` | 18.25% and -6.279% | 7.176% |
| `CCCNc1ccc(C(=O)NCCc2ccc(Cl)cc2)cn1` | 23.72% | 5.471% |
| `COC(=O)CNC(=O)C(C)Oc1ccccc1C(F)(F)F` (centres unmarked) | 12.03% | 2.652% and -0.7048% |
| `CC(C)Nc1oc(-c2ccc(S(=O)(=O)N(C)C)o2)nc1C#N` | 15.07% | 3.226% |
| `COc1ccc(C2CCCN2c2ccc(C#N)cn2)c(OC)c1` (centres unmarked) | 51.42% | 32.5% |
| `CN(C)C(=O)c1nc2c(n1C)CCN(Cc1ccccc1)C2` | 2.424% | -11.65% |
| `O=C(O)C(F)(F)F.O=C(O)C(F)(F)F.[H][C@@]12CCN(Cc3ccccn3)C[C@]1([H])OCCN(c1ccccc1)C2=O` | 10.43% | -10.7% and -11.83% |
| `CC(C)N1CCOCC2(CCCN(C(=O)c3cn(C)cn3)C2)C1.O=C(O)C(F)(F)F` (centres unmarked) | -46.89% and -4.765% | -30.29% |
| `COCCN1CCC(CNC(=O)C2(c3cccc(Cl)c3)CC2)C1` (centres unmarked) | 3.814% | 14.24% |
| `CCn1c(C)nnc1CN(C)C1CCN(CCc2cccs2)C1` (centres unmarked) | -52.4% | -33.45% and -8.576% |
| `CSCCC(C)(O)CNS(=O)(=O)Cc1ccc(F)cc1` (centres unmarked) | -19.62% | -4.907% |
| `Cc1ccc(S(=O)(=O)N2CCOCC2C#N)cc1Br` (centres unmarked) | 16.71% and 3.664% | 7.883% |
| `CCCN1CCN(C(=O)c2scnc2C)CC1` | -2.818% and 15.05% | 4.516% |
| `Cc1nc(CN2CCC(CNC(=O)Nc3ccccc3)CC2)oc1C` | -43.28% and 6.792% | -2.916% |
| `Cc1ccc(N2CCCC(c3[nH]ncc3-c3ccccc3)C2)nn1` (centres unmarked) | 18.92% | 5.645% and 26.33% |
| `CCCC(C(=O)NCCc1nc(C)cs1)N(C)C` (centres unmarked) | -19.35% | -12.5% and -10.81% |
| `[H][C@]12CC[C@]([H])(CN(C(=O)c3cccnc3)C1)N(Cc1ccc(F)cc1Cl)C2` | -30.05% | -3.587% and -25.12% |
| `[H][C@@]12COC[C@]1([H])[C@@H](OCC1CC1)CN2C(=O)c1ccc2c(c1)OCO2` | 2.976% and -50.68% | -16.35% |
| `CCN1CCN(c2ccc(NC(C)c3nc(C(C)C)no3)c(C)c2)CC1` (centres unmarked) | 21.71% | -1.534% |
| `COCCCNC(=O)CN1CCC(N2CCN(C)C2=O)CC1` | -5.351% | -4.121% |
| `Cc1ccnc(C2CCN(C(=O)c3cnn(C)c3)C2)n1` (centres unmarked) | 3.554% | -12.68% |
| `CCn1cnnc1CNC(=O)NC(C)c1ccc(Cl)s1` (centres unmarked) | 7.402% | -14.21% |
| `CN1CCN(CCCNC(=O)CCc2nc3cc(Br)cnc3[nH]2)CC1` | 12.07% | -3.449% |

Some entries from above, unchanged:

- O=C(CN1CCCC1c1nc(-c2ccccn2)no1)N1CCOCC1 (centres unmarked) : Mtb glucose medium: -20.39%; Mtb cholesterol medium: -14.22% and -2.274%
- Cc1ncsc1C(=O)NC1CCN(Cc2cccc3c2OCCO3)CC1 : Mtb glucose medium: -5.487%; Mtb cholesterol medium: -15.71%
- CC(C)Nc1oc(-c2ccc(S(=O)(=O)N(C)C)o2)nc1C#N : Mtb glucose medium: 15.07%; Mtb cholesterol medium: 3.226%
- [H][C@@]12COC[C@]1([H])[C@@H](OCC1CC1)CN2C(=O)c1ccc2c(c1)OCO2 : Mtb glucose medium: 2.976% and -50.68%; Mtb cholesterol medium: -16.35%

From ChEMBL document CHEMBL3988442, “University of Dundee, Small-Polar-MMV Screening Library” (2021).